For experiment [1], the target named is T1, Lin28 full length fused to RFP-MBD (bait) (human) (UniProt Q9H9Z2).
T1 sequence: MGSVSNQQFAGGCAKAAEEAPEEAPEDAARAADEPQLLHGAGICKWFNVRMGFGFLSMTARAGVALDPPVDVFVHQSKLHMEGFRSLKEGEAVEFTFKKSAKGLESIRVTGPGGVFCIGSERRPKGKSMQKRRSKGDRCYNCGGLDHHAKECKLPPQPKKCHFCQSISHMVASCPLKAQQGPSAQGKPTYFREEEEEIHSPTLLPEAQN
Briefly: microtubule bench assay (a GFP-labelled prey is brought onto microtubules by a bait fused to RFP-MBD); HeLa cells co-expressing bait (RFP-MBD fusion, on microtubules) and GFP-labelled prey for 24 h; fixed with methanol then PFA; Spearman's coefficient or prey versus bait intensity on microtubules.

The chains behind the UniProt entries cited, without tags or fusion partners.
UniProt P67809: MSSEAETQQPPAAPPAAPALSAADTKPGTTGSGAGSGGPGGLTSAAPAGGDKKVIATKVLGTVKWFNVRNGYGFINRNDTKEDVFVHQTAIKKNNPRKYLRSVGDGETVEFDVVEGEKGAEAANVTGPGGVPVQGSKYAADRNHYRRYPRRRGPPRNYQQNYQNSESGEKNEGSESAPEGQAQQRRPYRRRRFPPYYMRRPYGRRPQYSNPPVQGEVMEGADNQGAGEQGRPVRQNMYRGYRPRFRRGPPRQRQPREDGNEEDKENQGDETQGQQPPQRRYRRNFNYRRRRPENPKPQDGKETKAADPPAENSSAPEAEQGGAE

Experiment [2] concerns the target YB-1 full length fused to RFP-MBD (bait) (human) (UniProt P67809). The description is as above.

These are yes or no findings as the source states them, for the method shown. Some binding calls cover weakened binding; strength is not graded here. Sequences can lack the tags named with a protein.

B1: GFP-labeled full length Lin28 (wild type) (protein, UniProt Q9H9Z2 1-209)
chain: MGSVSNQQFAGGCAKAAEEAPEEAPEDAARAADEPQLLHGAGICKWFNVRMGFGFLSMTARAGVALDPPVDVFVHQSKLHMEGFRSLKEGEAVEFTFKKSAKGLESIRVTGPGGVFCIGSERRPKGKSMQKRRSKGDRCYNCGGLDHHAKECKLPPQPKKCHFCQSISHMVASCPLKAQQGPSAQGKPTYFREEEEEIHSPTLLPEAQN
In the case of B1, in experiment [1], the binding result is given as “binds”.

B2: GFP-labeled full length CSDE1 (prey) (protein, UniProt O75534-3 1-813)
chain: MENVFTVSSDPHPSPAAPPSLSLPLSSSSTSSGTKKQKRTPTYQRSMSFDPNLLHNNGHNGYPNGTSAALRETGVIEKLLTSYGFIQCSERQARLFFHCSQYNGNLQDLKVGDDVEFEVSSDRRTGKPIAVKLVKIKQEILPEERMNGQEVFYLTYTPEDVEGNVQLETGDKINFVIDNNKHTGAVSARNIMLLKKKQARCQGVVCAMKEAFGFIERGDVVKEIFFHYSEFKGDLETLQPGDDVEFTIKDRNGKEVATDVRLLPQGTVIFEDISIEHFEGTVTKVIPKVPSKNQNDPLPGRIKVDFVIPKELPFGDKDTKSKVTLLEGDHVRFNISTDRRDKLERATNIEVLSNTFQFTNEAREMGVIAAMRDGFGFIKCVDRDVRMFFHFSEILDGNQLHIADEVEFTVVPDMLSAQRNHAIRIKKLPKGTVSFHSHSDHRFLGTVEKEATFSNPKTTSPNKGKEKEAEDGIIAYDDCGVKLTIAFQAKDVEGSTSPQIGDKVEFSISDKQRPGQQVATCVRLLGRNSNSKRLLGYVATLKDNFGFIETANHDKEIFFHYSEFSGDVDSLELGDMVEYSLSKGKGNKVSAEKVNKTHSVNGITEEADPTIYSGKVIRPLRSVDPTQTEYQGMIEIVEEGDMKGEVYPFGIVGMANKGDCLQKGESVKFQLCVLGQNAQTMAYNITPLRRATVECVKDQFGFINYEVGDSKKLFFHVKEVQDGIELQAGDEVEFSVILNQRTGKCSACNVWRVCEGPKAVAAPRPDRLVNRLKNITLDDASAPRLMVLRQPRGPDNSMGFGAERKIRQAGVID
In the case of B2, the binding result in experiment [2] and in experiment [1] was “binds” throughout.
